# Source: paper PMC7689938, “Abscisic acid promotes jasmonic acid biosynthesis via a ‘SAPK10‐bZIP72‐AOC’ pathway to synergistically inhibit seed germination in rice (Oryza sativa)” (The New Phytologist, 2020)
# These are yes or no findings as the source states them, for the method shown. Some results given as binding are weak or reduced against the parent protein; the word gives no strength. Sequences can lack the tags named with a protein.
# T1: SAPK10 fused to the GAL4-binding domain (rice (Oryza sativa L. ssp. japonica cv Nipponbare)) (UniProt Q75H77)
# T1 sequence: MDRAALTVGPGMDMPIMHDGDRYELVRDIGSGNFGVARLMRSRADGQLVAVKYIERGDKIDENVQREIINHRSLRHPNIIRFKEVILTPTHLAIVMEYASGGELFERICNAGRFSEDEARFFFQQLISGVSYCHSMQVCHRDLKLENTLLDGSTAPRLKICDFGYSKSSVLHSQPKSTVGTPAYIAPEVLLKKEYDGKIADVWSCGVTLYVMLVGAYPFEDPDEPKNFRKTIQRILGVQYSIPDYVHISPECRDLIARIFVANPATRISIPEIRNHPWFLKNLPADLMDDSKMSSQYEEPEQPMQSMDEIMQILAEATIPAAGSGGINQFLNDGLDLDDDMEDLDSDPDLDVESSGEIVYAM
# Biological target: T1, SAPK10 fused to the GAL4-binding domain (rice (Oryza sativa L. ssp. japonica cv Nipponbare))
# Assay: two-hybrid; Matchmaker GAL4 two-hybrid system, constructs cotransformed into yeast strain Y2H Gold, selected on medium lacking Leu, Trp and His with 0.04 mg/ml X-alpha-Gal and 100 ng/ml Aureobasidin A
row,binding,Binder
1,binds,"His-SAPK10 (enzyme, UniProt Q75H77 1-362, looked up, SAPK10 (SnRK2 type kinase), rice; full-length CDS in pET28a; source: Transetta (DE3) cells, purified (6 x His-Tagged Protein Purification Kit)) MDRAALTVGPGMDMPIMHDGDRYELVRDIGSGNFGVARLMRSRADGQLVAVKYIERGDKIDENVQREIINHRSLRHPNIIRFKEVILTPTHLAIVMEYASGGELFERICNAGRFSEDEARFFFQQLISGVSYCHSMQVCHRDLKLENTLLDGSTAPRLKICDFGYSKSSVLHSQPKSTVGTPAYIAPEVLLKKEYDGKIADVWSCGVTLYVMLVGAYPFEDPDEPKNFRKTIQRILGVQYSIPDYVHISPECRDLIARIFVANPATRISIPEIRNHPWFLKNLPADLMDDSKMSSQYEEPEQPMQSMDEIMQILAEATIPAAGSGGINQFLNDGLDLDDDMEDLDSDPDLDVESSGEIVYAM"
2,binds,"His-SAPK10^S177A (enzyme, UniProt Q75H77 1-362, looked up, SAPK10, rice, Ser177 replaced by alanine; full-length CDS in pET28a; source: Transetta (DE3) cells, purified (6 x His-Tagged Protein Purification Kit)) MDRAALTVGPGMDMPIMHDGDRYELVRDIGSGNFGVARLMRSRADGQLVAVKYIERGDKIDENVQREIINHRSLRHPNIIRFKEVILTPTHLAIVMEYASGGELFERICNAGRFSEDEARFFFQQLISGVSYCHSMQVCHRDLKLENTLLDGSTAPRLKICDFGYSKSSVLHSQPKATVGTPAYIAPEVLLKKEYDGKIADVWSCGVTLYVMLVGAYPFEDPDEPKNFRKTIQRILGVQYSIPDYVHISPECRDLIARIFVANPATRISIPEIRNHPWFLKNLPADLMDDSKMSSQYEEPEQPMQSMDEIMQILAEATIPAAGSGGINQFLNDGLDLDDDMEDLDSDPDLDVESSGEIVYAM"
